The results in this text go back to PubChem BioAssay AID2685 (National Center for Advancing Translational Sciences (NCATS), 2010).

The other results are listed elsewhere or left out. The main result of the screen is listed elsewhere. These columns were measured beside it and carry no call. Compounds called inactive in the main read-out are mostly missing here. The note in brackets gives the kind of curve behind each potency; many fits are weak.

The nature of the assay: qHTS Assay for Lipid Storage Modulators in Drosophila S3 Cells.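 For cell number change: cells counted by Cell Tracker Red CMTPX staining in the red channel.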 Particulars: BODIPY lipid droplet fluorescence, 18-24 h; for cell number change: measured here: cell count max response, cells fed with added oleic acid. The method in brief: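 Laser-scanning cytometry quantifies lipid droplet accumulation (500–530 nm total intensity; droplet/cell object ratio) in oleic acid-fed (400 uM added) Drosophila S3 cells treated with a concentration series. 20 uM Triacsin C defined 100% inhibition.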
In general terms: qHTS replaces the single test concentration by a dilution series.

Setting [1] is: measured here: cell number channel AC50, cells fed with added oleic acid.
[2] abbreviates: measured here: lipid fluorescence (Fed channel) AC50, cells fed with added oleic acid.

What is called AC50 is the midpoint of the concentration-response curve, whichever way the signal moves. Low values mean greater potency, high ones weaker potency. `CC(C)Cn1c(N)c(C(=O)COC(=O)c2ccc(O)cc2O)c(=O)n(C)c1=O`: the cell number change amounted to 54%. Besides, the AC50 under setting [1] was 16.4 µM [rising, single point]. On to `C/C(=N\Nc1cccc2cccnc12)c1ccccn1`, for which the AC50 under setting [2] is 0.58 µM [falling, single point].

Regarding `Cc1ccc2nc(N/C(=N/S(=O)(=O)c3cccs3)c3ccccc3Cl)sc2c1`, the cell number change was found to be 5.68%. In addition, the AC50 under setting [1] is 0.00461 µM [rising, full curve, poor fit]. For the compound `O=C(N/N=C/c1ccc2c(c1)OCO2)c1cccs1`, the cell number change was -1.52%. Moreover, the AC50 under setting [2] was 0.164 µM [falling, full curve, poor fit]. On to `Cc1[nH]c2ccccc2c1C(O)CN1CCN(c2cccc(C(F)(F)F)c2)CC1` (centres undefined), for which the cell number change was -35.8%. For the same compound, the AC50 under setting [1] is 23.1 µM [falling, partial curve, poor fit]. Take `C/C(CCc1oc2ccc(Cl)cc2c1-c1ccc(C)o1)=N\O`: the cell number change was -41.2%. Under setting [1], the AC50 was 23.1 µM [falling, single point]. For the compound `Cc1cc(C(=O)CN2C(=O)NC3(CCCCC3)C2=O)c(C)n1Cc1ccc2c(c1)OCO2`, the cell number change was -0.54%. In addition, the AC50 under setting [2] was 29.1 µM [rising, single point]. In the case of `COc1cc2c(cc1OC)CN(CC(=O)Nc1ccccc1C(=O)NC1CC1)CC2`, the cell number change amounted to 7.35%. The AC50 under setting [1] is 2.31 µM [rising, partial curve, poor fit]. Besides, under setting [2], the AC50 was 10.3 µM [rising, partial curve, poor fit].

Regarding `CCOc1ccccc1N(C(=O)c1snc(C(N)=O)c1N)C(C(=O)NCc1ccccc1)c1ccc(O)cc1` (centres undefined), the cell number change was -4.84%. Besides, under setting [1], the AC50 is 0.00517 µM [rising, full curve, poor fit]. Also, the AC50 under setting [2] was 0.731 µM [rising, full curve].

Turning to `CCOc1ccc(-n2c(=S)sc3c(=O)[nH]c(SCC(=O)NC(C)CC)nc32)cc1` (centres undefined), the cell number change was -12.8%. The AC50 under setting [2] was 0.184 µM [rising, full curve, poor fit]. `CCCCCCNC(=O)C(C(=O)OCC)C1CCCCC1` (centres undefined): the cell number change was determined as 6.03%. Still for that read-out and setting: the result for `O=C(CCNS(=O)(=O)c1cccc2nonc12)NC1CCCCC1` reads -0.683%. Take `COc1cccc(/C=N/c2oc(-c3ccccc3)cc2C#N)c1O`: under setting [2], the AC50 was 0.13 µM [falling, full curve, poor fit]. Take `Cc1occc1C(=O)NNC(=O)c1ccc(S(=O)(=O)N(C)C)cc1`: the cell number change is 20.2%. For the same compound, the AC50 under setting [2] is 7.31 µM [rising, partial curve, poor fit]. For the compound `NC(=O)C1Cc2ccccc2CN1C(=O)c1cccc(Oc2ccccc2)c1` (centres undefined), the cell number change was determined as 9.72%. Besides, under setting [2], the AC50 was 0.58 µM [falling, single point]. Regarding `Cc1ccc(C(=O)CSC2=NC(N)=C(C#N)C3(CCCCC3)C2C(N)=O)cc1` (centres undefined), the cell number change came out at 0.264%. In addition, under setting [2], the AC50 was 5.8 µM [rising, single point]. Turning to `CCN(CC)CC1(O)CCN(C(=O)c2ccc(Cl)c(Cl)c2)CC1`, the cell number change is -18.3%. Besides, under setting [2], the AC50 is 35.5 µM [falling, single point]. On to `Cc1cccc(Nc2nc(C)cc(C)c2C#N)c1`, for which the cell number change was found to be 6.57%. Moreover, the AC50 under setting [2] is 14.6 µM [rising, partial curve]. Regarding `Cc1c(Br)c([N+](=O)[O-])nn1C(C)C(=O)NCc1cccs1` (centres undefined), the cell number change is -15.1%. Besides, the AC50 under setting [1] is 6.51 µM [falling, single point]. Moreover, under setting [2], the AC50 was 3.66 µM [falling, partial curve, poor fit]. Regarding `CC(C)Cc1cc(C(=O)N2CCCC(C(=O)c3cc(F)ccc3F)C2)no1` (centres undefined), the cell number change is -3.3%. As to `COc1ccc(C2=NS(=O)(=O)N(C)C(C(=O)Nc3ccc(F)cc3F)=C2)cc1`, the cell number change stood at 21.9%. In the case of `CN(CC(=O)Nc1ccc(S(=O)(=O)N2CCCC2)cc1)Cc1cccc(Cl)c1Cl`, the cell number change is -16.7%. For the same compound, the AC50 under setting [2] is 23.1 µM [falling, partial curve, poor fit]. With `Cn1c(=O)oc2cc(S(=O)(=O)CCC(=O)NCCc3ccccc3)ccc21`, the cell number change is -12%.

As for `COc1cc(C(=O)OCC(=O)NC2CC2)cc(OC)c1OC`, the cell number change was 18.6%. Further, under setting [2], the AC50 is 10.3 µM [rising, partial curve, poor fit]. Take `CCOc1ccccc1N1CCN(C(=O)c2c(C)noc2C)CC1`: the cell number change was determined as 7.35%. The AC50 under setting [2] is 20.6 µM [rising, single point]. Consider `COc1ccc(CCNC(=O)/C=C/C(=O)O)cc1`, for which the cell number change was found to be 32.5%. Also, the AC50 under setting [2] was 7.31 µM [falling, partial curve, poor fit]. In the case of `CCc1ccc(OCCOCC(O)CN(CCO)CCO)cc1` (centres undefined), the cell number change was -16.7%. The AC50 under setting [2] is 0.291 µM [falling, full curve, poor fit]. In the case of `CN(C)c1cccc(C(=O)NCC(c2ccco2)N(C)C)c1` (centres undefined), the cell number change was -7.89%. On to `CCCCn1c2nc3ccccc3nc2c2c(=O)n(CCC(C)C)cnc21`, for which the cell number change was 0.829%. In addition, the AC50 under setting [1] was 6.51 µM [rising, single point]. Consider `CCS(=O)(=O)Nc1cccc(-c2cn3c(n2)SCC3)c1`, for which the cell number change stood at 30.1%. In addition, under setting [1], the AC50 is 23.1 µM [rising, single point]. The AC50 under setting [2] was 29.1 µM [rising, single point]. Turning to `COc1ccc2c(c1)[C@H]1[C@H](CO2)[C@H](c2ccccc2)[C@]2(C)C(=O)Nc3cc(F)c(F)cc3C(=O)N12`, the cell number change was found to be 0.066%. For the same compound, under setting [2], the half-maximal activity concentration (AC50) was 3.26 µM [falling, single point].

With `CCN(CC)C(=O)C1=C(C)NC(=S)NC1c1cccs1` (centres undefined), the cell number change was -17.2%. Also, the AC50 under setting [1] was 0.82 µM [rising, single point]. Besides, the AC50 under setting [2] is 6.51 µM [falling, partial curve]. Consider `O=C(C1CCN(S(=O)(=O)c2cc(Cl)ccc2Cl)CC1)N1CCCC1`, for which the cell number change came out at 16.7%. Consider `CCSc1nnc(NC(=O)C(Cc2ccccc2)n2cccc2)s1` (centres undefined), for which the cell number change is -28.8%. Also, the AC50 under setting [1] is 0.0164 µM [falling, full curve].

As for `Cc1cc(CNC(=O)c2ccc(C)c([N+](=O)[O-])c2)c2ccccc2n1`, the half-maximal activity concentration (AC50) reads like this: under setting [1], 0.366 µM [rising, partial curve]; under setting [2], 0.517 µM [rising, partial curve].

As for `Cc1cc2oc(=O)cc(CN3CCN(S(=O)(=O)/C=C/c4ccccc4)CC3)c2cc1C`, the cell number change is -1.36%. The AC50 under setting [2] was 3.26 µM [rising, partial curve]. `O=C(Nc1ccc2c(c1)OCCO2)NC1CCCCC1`: the AC50 under setting [1] is 5.8 µM [falling, partial curve] and the AC50 under setting [2] is 29.1 µM [falling, single point].

Consider `CCOC(=O)c1sc(-c2ccccc2)cc1NC(=O)CSc1nnnn1C`, for which the cell number change was -18.9%. Also, the AC50 under setting [2] is 23.1 µM [rising, partial curve, poor fit]. Regarding `Cc1cc(C)nc(N/N=C/c2c(C)oc3ccccc23)n1`, the AC50 under setting [1] is 0.82 µM [rising, partial curve]. Consider `Nc1nnc(CCCCc2cccs2)o1`, for which the cell number change was -14%. Moreover, the AC50 under setting [2] was 29.1 µM [falling, single point]. Turning to `O=C(Cn1c(=O)c2cccn2c2cccnc21)N1CCN(c2ccc(Cl)cc2)CC1`, the cell number change is -40.5%. The AC50 under setting [1] is 32.6 µM [falling, single point]. As to `N#Cc1ccccc1COC(=O)c1ccc2c(c1)OCO2`, the cell number change is -32.7%. Besides, the AC50 under setting [1] was 29.1 µM [falling, single point]. Further, under setting [2], the AC50 is 16.4 µM [falling, single point]. In the case of `Cc1ccsc1/C=N/NC(=O)c1ccncc1`, the cell number change came out at 48.2%. For the same compound, the AC50 under setting [1] was 3.26 µM [falling, partial curve]. Also, under setting [2], the concentration at half-maximal activity (AC50) was 3.66 µM [falling, partial curve, poor fit].

With `CC1Cc2ccccc2C(=O)N1` (centres undefined), the cell number change is -14.8%. The AC50 under setting [2] is 29.1 µM [falling, single point]. For the compound `COC(=O)C(NC(=O)CCC(=O)N[C@@H](C(=O)OC)c1ccccc1)c1ccccc1` (some centres undefined), the cell number change came out at 11%. Further, the AC50 under setting [2] is 29.1 µM [rising, single point]. In the case of `CC1(C)CC2CC(C)(CN2S(=O)(=O)c2ccc(C(=O)Nc3cc(S(=O)(=O)N4CCOCC4)ccc3Cl)cc2)C1` (centres undefined), under setting [1], the AC50 was 6.51 µM [rising, single point]. With `COC(=O)c1cnc(SC)nc1C`, the cell number change is -102%. For the same compound, the AC50 under setting [1] is 29.1 µM [falling, single point]. The AC50 under setting [2] was 29.1 µM [falling, partial curve]. In the case of `COCCn1nnnc1C(C(C)C)N(Cc1ccccc1)Cc1cc2cc(OC)ccc2[nH]c1=O` (centres undefined), the cell number change is -47.7%. Also, the concentration at half-maximal activity (AC50) under setting [1] is 29.1 µM [falling, single point]. `COc1cc(SC)ccc1C(=O)NNC(=O)c1cc(C)oc1C`: the cell number change worked out at 100%.

Take `COc1ccc(NC(=O)c2ccc(=O)[nH]c2)cc1S(=O)(=O)N1CCCCC1`: the cell number change was -14.6%. Besides, under setting [2], the AC50 was 7.31 µM [falling, partial curve, poor fit]. Regarding `c1coc(-c2ccnc(-n3cccc3)n2)c1`, the cell number change was 7.56%. Under setting [2], the AC50 was 0.517 µM [rising, full curve]. For `Cc1ccc(SCCNC(=S)Nc2ccccc2)cc1`, the cell number change turned out to be 38.2%. Moreover, the AC50 under setting [1] is 9.2 µM [rising, partial curve]. Further, the concentration at half-maximal activity (AC50) under setting [2] was 2.31 µM [rising, partial curve]. `COc1ccc(C2C(C(=O)c3ccccc3)N3c4ccccc4C=CC3C2[N+](=O)[O-])cc1` (centres undefined): the cell number change is -50.7%. Under setting [1], the half-maximal activity concentration (AC50) is 2.06 µM [falling, partial curve]. Besides, under setting [2], the concentration at half-maximal activity (AC50) is 2.31 µM [rising, partial curve]. With `OC(COc1cccc2ccccc12)CN1CCN(c2ccccn2)CC1` (centres undefined), the cell number change is -28.7%. Besides, the concentration at half-maximal activity (AC50) under setting [2] is 23.1 µM [falling, single point].

Take `COc1ccc(OC2C(=O)N(c3cc(C)ccc3C)C2c2ccc(OC)c(OC)c2)cc1` (centres undefined): the cell number change was -15.4%.

Regarding `O=C(Cc1ccc(Br)cc1)Nc1ccccc1Sc1ccccc1`, the cell number change stood at 138%. For `CSc1nn2cc(CCN3CCOCC3)c(-c3ccc(F)cc3)nc2c1C#N`, the cell number change turned out to be 22.7%. Moreover, the AC50 under setting [1] was 0.731 µM [rising, full curve, poor fit]. Also, under setting [2], the AC50 is 0.731 µM [rising, full curve, poor fit]. Turning to `CC(=O)c1sc(NC(=O)CCN2C(=O)C3CC=CCC3C2=O)nc1-c1ccccc1` (centres undefined), under setting [2], the AC50 is 0.58 µM [rising, partial curve, poor fit]. On to `CCc1nc(SCc2ccc(OC)c(Br)c2)n[nH]1`, for which the cell number change was determined as 11.9%. The AC50 under setting [2] is 23.1 µM [rising, single point].
